According to article PMC9792849:
No constants are given. Whether binding was seen depends on the method and setting. Binding seen in cells or lysates may run through a third protein. Some binding calls cover weakened binding; strength is not graded here. Tags and fused reporters may be left off the sequences shown.

T1: DNAAF2 protein with the Flag tag fused to the C-terminus (UniProt Q9NVR5)
T1 sequence: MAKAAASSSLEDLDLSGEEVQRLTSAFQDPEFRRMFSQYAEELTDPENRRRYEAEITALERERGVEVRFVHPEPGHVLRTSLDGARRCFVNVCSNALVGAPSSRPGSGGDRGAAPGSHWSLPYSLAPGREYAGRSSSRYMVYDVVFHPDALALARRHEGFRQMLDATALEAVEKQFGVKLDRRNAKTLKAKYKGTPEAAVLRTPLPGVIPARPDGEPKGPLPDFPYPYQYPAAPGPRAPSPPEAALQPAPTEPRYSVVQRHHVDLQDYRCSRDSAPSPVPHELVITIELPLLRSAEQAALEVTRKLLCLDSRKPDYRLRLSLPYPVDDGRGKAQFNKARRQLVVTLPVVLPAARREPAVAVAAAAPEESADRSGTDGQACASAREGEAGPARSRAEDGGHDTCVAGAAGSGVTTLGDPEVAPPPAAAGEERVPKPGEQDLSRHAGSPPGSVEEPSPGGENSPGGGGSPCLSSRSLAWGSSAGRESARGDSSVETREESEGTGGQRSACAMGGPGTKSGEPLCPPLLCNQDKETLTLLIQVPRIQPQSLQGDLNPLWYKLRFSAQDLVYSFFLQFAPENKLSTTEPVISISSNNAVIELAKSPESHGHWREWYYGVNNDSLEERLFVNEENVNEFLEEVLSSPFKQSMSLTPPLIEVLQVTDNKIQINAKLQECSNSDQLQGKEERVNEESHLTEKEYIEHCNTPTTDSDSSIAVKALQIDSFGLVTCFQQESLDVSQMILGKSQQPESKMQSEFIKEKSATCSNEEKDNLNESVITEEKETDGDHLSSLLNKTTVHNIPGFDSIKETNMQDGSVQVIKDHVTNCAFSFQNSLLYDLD


Target: T1, DNAAF2 protein with the Flag tag fused to the C-terminus
Assay: co-IP; HA-tagged DNAAF4 co-expressed with Flag-tagged DNAAF2 in HEK293T cells for 48 h; extracts immunoprecipitated with Flag antibody on Protein G magnetic beads overnight at 4°C, washed 5 times with CoIP buffer; western blot with Flag and HA antibodies

binding	Binder
binds	normal DNAAF4 protein with the HA tag fused to the C-terminus (protein, UniProt Q8WXU2-1 1-420) MPLQVSDYSWQQTKTAVFLSLPLKGVCVRDTDVFCTENYLKVNFPPFLFEAFLYAPIDDESSKAKIGNDTIVFTLYKKEAAMWETLSVTGVDKEMMQRIREKSILQAQERAKEATEAKAAAKREDQKYALSVMMKIEEEERKKIEDMKENERIKATKALEAWKEYQRKAEEQKKIQREEKLCQKEKQIKEERKKIKYKSLTRNLASRNLAPKGRNSENIFTEKLKEDSIPAPRSVGSIKINFTPRVFPTALRESQVAEEEEWLHKQAEARRAMNTDIAELCDLKEEEKNPEWLKDKGNKLFATENYLAAINAYNLAIRLNNKMPLLYLNRAACHLKLKNLHKAIEDSSKALELLMPPVTDNANARMKAHVRRGTAFCQLELYVEGLQDYEAALKIDPSNKIVQIDAEKIRNVIQGTELKS
binds	mutant DNAAF4 protein (p. G373E) with the HA tag fused to the C-terminus (protein, UniProt Q8WXU2-1 1-420) MPLQVSDYSWQQTKTAVFLSLPLKGVCVRDTDVFCTENYLKVNFPPFLFEAFLYAPIDDESSKAKIGNDTIVFTLYKKEAAMWETLSVTGVDKEMMQRIREKSILQAQERAKEATEAKAAAKREDQKYALSVMMKIEEEERKKIEDMKENERIKATKALEAWKEYQRKAEEQKKIQREEKLCQKEKQIKEERKKIKYKSLTRNLASRNLAPKGRNSENIFTEKLKEDSIPAPRSVGSIKINFTPRVFPTALRESQVAEEEEWLHKQAEARRAMNTDIAELCDLKEEEKNPEWLKDKGNKLFATENYLAAINAYNLAIRLNNKMPLLYLNRAACHLKLKNLHKAIEDSSKALELLMPPVTDNANARMKAHVRRETAFCQLELYVEGLQDYEAALKIDPSNKIVQIDAEKIRNVIQGTELKS
